# Experimental data taken from PubChem BioAssay (NCATS).
# By UniProt entry, the sequences of proteins in these tests, tags left out. Where a name states a change or a piece, a line headed by the entry shows the natural chain unless it says otherwise.
# UniProt O95398: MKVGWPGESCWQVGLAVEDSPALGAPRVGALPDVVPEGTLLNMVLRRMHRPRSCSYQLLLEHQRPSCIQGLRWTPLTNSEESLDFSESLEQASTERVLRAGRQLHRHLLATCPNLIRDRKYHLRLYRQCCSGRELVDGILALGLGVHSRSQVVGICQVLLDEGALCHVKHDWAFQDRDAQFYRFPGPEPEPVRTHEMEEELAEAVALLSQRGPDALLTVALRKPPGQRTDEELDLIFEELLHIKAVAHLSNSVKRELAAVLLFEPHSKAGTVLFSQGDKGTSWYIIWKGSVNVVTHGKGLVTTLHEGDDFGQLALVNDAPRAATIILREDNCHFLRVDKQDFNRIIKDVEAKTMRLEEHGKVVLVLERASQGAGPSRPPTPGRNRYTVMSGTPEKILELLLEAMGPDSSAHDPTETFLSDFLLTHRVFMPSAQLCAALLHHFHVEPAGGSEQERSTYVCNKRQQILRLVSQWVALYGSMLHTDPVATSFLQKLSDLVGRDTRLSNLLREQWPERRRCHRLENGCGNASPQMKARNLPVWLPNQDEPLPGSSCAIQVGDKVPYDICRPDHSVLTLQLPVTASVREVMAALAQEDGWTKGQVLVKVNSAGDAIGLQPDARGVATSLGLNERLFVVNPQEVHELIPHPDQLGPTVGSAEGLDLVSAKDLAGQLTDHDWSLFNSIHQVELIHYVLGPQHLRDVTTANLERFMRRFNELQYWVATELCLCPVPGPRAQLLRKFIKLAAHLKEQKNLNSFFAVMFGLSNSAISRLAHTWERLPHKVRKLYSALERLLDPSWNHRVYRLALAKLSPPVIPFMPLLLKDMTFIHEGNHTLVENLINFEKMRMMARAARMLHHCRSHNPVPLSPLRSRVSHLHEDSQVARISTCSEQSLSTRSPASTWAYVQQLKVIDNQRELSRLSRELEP
# Where “and” joins values, the source holds several entries; their conditions need not be identical. Equal entries are not always repeated. The inconclusive results got no clear call from the source; some entries with a clear call stand among them for comparison. For part of these data: Potencies beside an inconclusive call are fits to weak or partial responses and may not hold up. Calls of active or inactive are those of the source. Calls follow the shape of the dose curve; as a rule, active = well fitted curve in the direction sought with a large enough effect; inconclusive = small, poorly fitted or top-dose-only effect, or another doubt; inactive = no such curve, though single readings can be large; an effect the other way counts as inactive or inconclusive.
# Tests used:
# [1] = Quantitative High-Throughput drug screen in 47 multiple myeloma cell lines against the NCATS MIPE library collection: VP6_DJ cell viability assay (AID 1919867); also: nearly all actives have a fitted effect of over 40% in size
# Outline: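 Inhibition of viability over 48 h was scored by ATP content (CellTiter-Glo) in 500-cell wells. Zero and full viability were defined by media-only and DMSO-only wells.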
# TAB113 = assay: qHTS profiling for inhibitors of Plasmodium falciparum proliferation (AID 504749); also: nearly all actives have a fitted effect of over 60% in size; conditions: P. falciparum in erythrocytes, SYBR Green DNA, 72 h; series mostly up to 28.7 µM
# Outline: (§1)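 Infected RBCs, 0.3% parasitemia/2.5% Hct final; cpd 72 h, 37 C, 5% CO2; lysis buffer with saponin/triton/SYBR Green I, o/n RT dark; FI 485/535; norm. to artemisinin (0.29 uM) and DMSO.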
# [2] = qHTS of pediatric cancer cell lines to identify multiple opportunities for drug repurposing: Confirmatory screen for DAOY cells (AID 1347114); also: nearly all actives have a fitted effect of over 65% in size
# Outline: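 Viability measured as metabolically active cells via CellTiter-Glo luminescence following 48 hours of compound exposure, 11-point dilutions in confirmatory testing. 500-1,000 cells/well plated 5 hours before dosing; controls were DMSO and 2.3 µM bortezomib.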
# 3D7 = assay: qHTS profiling for inhibitors of Plasmodium falciparum proliferation (AID 504749); also: nearly all actives have a fitted effect of over 60% in size; conditions: P. falciparum in erythrocytes, SYBR Green DNA, 72 h; series mostly up to 28.7 µM
# Outline: as §1
# CP192 = assay: as above; conditions: P. falciparum in erythrocytes, SYBR Green DNA, 72 h; series mostly up to 28.7 µM
# Outline: as §1
# CP211 = assay: as above; conditions: P. falciparum in erythrocytes, SYBR Green DNA, 72 h; series mostly up to 28.7 µM
# Outline: as §1
# CP238 = assay: as above; conditions: P. falciparum in erythrocytes, SYBR Green DNA, 72 h; series mostly up to 28.7 µM
# Outline: as §1
# CP250 = assay: as above; conditions: P. falciparum in erythrocytes, SYBR Green DNA, 72 h; series mostly up to 28.7 µM
# Outline: as §1
# CP252 = assay: as above; conditions: P. falciparum in erythrocytes, SYBR Green DNA, 72 h; series mostly up to 28.7 µM
# Outline: as §1
# CP260 = assay: as above; conditions: P. falciparum in erythrocytes, SYBR Green DNA, 72 h; series mostly up to 28.7 µM
# Outline: as §1
# CP325 = assay: as above; conditions: P. falciparum in erythrocytes, SYBR Green DNA, 72 h; series mostly up to 28.7 µM
# Outline: as §1
# DFO2036 = assay: as above; conditions: P. falciparum in erythrocytes, SYBR Green DNA, 72 h; series mostly up to 28.7 µM
# Outline: as §1
# DIV14 = assay: as above; conditions: P. falciparum in erythrocytes, SYBR Green DNA, 72 h; series mostly up to 28.7 µM
# Outline: as §1
# N140 = assay: as above; conditions: P. falciparum in erythrocytes, SYBR Green DNA, 72 h; series mostly up to 28.7 µM
# Outline: as §1
# PAD = assay: as above; conditions: P. falciparum in erythrocytes, SYBR Green DNA, 72 h; series mostly up to 28.7 µM
# Outline: as §1
# SC27B = assay: as above; conditions: P. falciparum in erythrocytes, SYBR Green DNA, 72 h; series mostly up to 28.7 µM
# Outline: as §1
# W2 = assay: as above; conditions: P. falciparum in erythrocytes, SYBR Green DNA, 72 h; series mostly up to 28.7 µM
# Outline: as §1
# [3] = qHTS to identify inhibitors of the type 1 interferon - major histocompatibility complex class I in skeletal muscle: primary screen against the NCATS Pharmaceutical Collection (AID 1347407); conditions: human skeletal muscle cells, IFN-b-induced MHC-I HiBiT luminescence, 24 h; series mostly up to 45.9 µM;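 also: luminescence of HiBiT knocked into endogenous HLA-B as interferon-induced MHC class I level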
# Outline: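 Compounds […] were added to CRISPR-engineered HLA-B-HiBiT C25cl48 human myoblasts with 4.0 ng/ml IFN-beta. After 24 hrs at 37 C, cells were lysed and HiBiT luminescence measured.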
# [4] = biological target: Rap guanine nucleotide exchange factor 3 (Homo sapiens) (UniProt O95398); assay: Confirmatory qHTS for antagonist of cAMP-regulated guanine nucleotide exchange factor 3 (EPAC1) (AID 1645880); conditions: EPAC1 Rap1B-BODIPY-GDP exchange, fluorescence; also: nearly all actives have a fitted effect of over 55% in size
# Outline: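 Nucleotide exchange uses 100 nM EPAC1, 250 nM RAP1B-BODIPY-GDP and 50 uM GDP, with compounds in a concentration-titration series. After 5 min at room temperature, fluorescence (480 nm ex/540 nm em) is read every 5 min for 30 min. Data are normalized to control ATA and DMSO.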
# CP256 = assay: qHTS profiling for inhibitors of Plasmodium falciparum proliferation (AID 504749); also: nearly all actives have a fitted effect of over 60% in size; conditions: P. falciparum in erythrocytes, SYBR Green DNA, 72 h; series mostly up to 28.7 µM
# Outline: as §1
# Potency is read from the fitted curve at half-maximal effect.
smiles,measurement,setting,value
C[C@H](NCc1ccc(OCc2cccc(F)c2)cc1)C(N)=O,Potency,[1],active: 2.35 µM
CCCOC(=O)c1ccccc1,Potency,TAB113,inactive
O=C(C=CC#Cc1cccc(NS(=O)(=O)c2ccccc2)c1)NO,Potency,[2],active: 7.37 µM
COc1cc(OC)c(C=CS(=O)(=O)Cc2ccc(OC)c(NCC(=O)O)c2)c(OC)c1,Potency,[1],active: 0.372 µM
C=CC(=O)Nc1cccc(Nc2nc(NC3CCC(N(C)C)CC3)nc3c2ncn3C(C)C)c1 (configuration not stated),Potency,[2],active: 3.29 µM
C/C(=C\C(=O)OCCCCCCCCC(=O)O)C[C@@H]1OC[C@H](C[C@@H]2O[C@H]2[C@@H](C)[C@H](C)O)[C@@H](O)[C@H]1O,Potency,3D7,"inconclusive: 0.756 µM [inhibitor, full curve, poor fit]"
same,Potency,CP192,"inconclusive: 0.478 µM [inhibitor, full curve]"
same,Potency,CP211,"inconclusive: 0.107 µM [inhibitor, full curve]"
same,Potency,CP238,"inconclusive: 0.199 µM [inhibitor, full curve]"
same,Potency,CP250,"inconclusive: 0.355 µM [inhibitor, full curve, poor fit]"
same,Potency,CP252,"inconclusive: 0.1 µM [inhibitor, full curve]"
same,Potency,CP260,"inconclusive: 0.126 µM [inhibitor, full curve]"
same,Potency,CP325,"inconclusive: 0.151 µM [inhibitor, full curve]"
same,Potency,DFO2036,"inconclusive: 0.141 µM [inhibitor, full curve]"
same,Potency,DIV14,"inconclusive: 0.269 µM [inhibitor, full curve, poor fit]"
same,Potency,N140,"inconclusive: 0.0794 µM [inhibitor, full curve]"
same,Potency,PAD,"inconclusive: 0.224 µM [inhibitor, full curve]"
same,Potency,SC27B,"inconclusive: 0.178 µM [inhibitor, full curve]"
same,Potency,TAB113,"inconclusive: 0.158 µM [inhibitor, full curve]"
N[C@@H](Cc1ccc(O)cc1)C(=O)O,Potency,3D7,inactive
same,Potency,CP325,"inconclusive: 0.0012 µM [inhibitor, partial curve, poor fit]"
same,Potency,DFO2036,inactive
CN1CCC[C@@H]1CCO[C@](C)(c1ccccc1)c1ccc(Cl)cc1,Potency,CP192,inactive
same,Potency,CP250,"inconclusive: 17.8 µM [inhibitor, single point]"
same,Potency,CP252,"inconclusive: 8.91 µM [inhibitor, single point]"
same,Potency,DIV14,"inconclusive: 5.36 µM [inhibitor, partial curve]"
same,Potency,N140,"inconclusive: 8.91 µM [inhibitor, single point]"
same,Potency,W2,active: 13.5 µM
CN1CCN(CCCN2c3ccccc3Sc3ccc(C(F)(F)F)cc32)CC1,Potency,[3],"inconclusive: 23.6 µM [inhibitor, partial curve, poor fit]"
same,Potency,[4],"inconclusive: 19.8 µM [inhibitor, partial curve, poor fit] and inconclusive: 49.8 µM [inhibitor, single point]"
same,Potency,3D7,"inconclusive: 11.2 µM [inhibitor, single point]"
same,Potency,CP192,"inconclusive: 12 µM [inhibitor, single point]"
same,Potency,CP211,"inconclusive: 13.5 µM [inhibitor, single point]"
same,Potency,CP238,active: 3.16 µM
same,Potency,CP250,active: 8.91 µM
same,Potency,CP256,"inconclusive: 15.8 µM [inhibitor, partial curve, poor fit]"
same,Potency,CP260,active: 10 µM
same,Potency,CP325,"inconclusive: 16.9 µM [inhibitor, single point]"
same,Potency,DFO2036,active: 8.91 µM
same,Potency,PAD,active: 12.6 µM
same,Potency,SC27B,"inconclusive: 15.8 µM [inhibitor, single point]"
O=C(O)CSc1cc(NS(=O)(=O)c2ccc(Br)cc2)c2ccccc2c1O,Potency,[4],active: 84.9 µM
CN1CCN(CCC(=O)N2c3ccccc3Sc3ccc(C(F)(F)F)cc32)CC1,Potency,CP211,"inconclusive: 8.49 µM [inhibitor, partial curve, poor fit]"
same,Potency,CP238,"inconclusive: 17.8 µM [inhibitor, single point]"
same,Potency,CP252,"inconclusive: 10 µM [inhibitor, single point]"
same,Potency,N140,"inconclusive: 17.8 µM [inhibitor, single point]"
same,Potency,PAD,"inconclusive: 11.2 µM [inhibitor, single point]"
CC(=O)NO,Potency,CP256,inactive
CCOC(=O)C1=C(C)NC(C)=C(C(=O)OC)C1c1cccc(Cl)c1Cl (configuration not stated),Potency,[4],"inconclusive: 55.9 µM [inhibitor, partial curve] and inconclusive: 53.6 µM [inhibitor, partial curve]"
same,Potency,CP260,inactive
same,Potency,DIV14,inactive
same,Potency,SC27B,"inconclusive: 17.8 µM [inhibitor, single point]"
same,Potency,W2,"inconclusive: 19 µM [inhibitor, single point]"
NS(=O)(=O)c1cc(C(=O)O)cc(N2CCCC2)c1Oc1ccccc1,Potency,[3],inactive
same,Potency,CP256,inactive
same,Potency,W2,"inconclusive: 0.0256 µM [inhibitor, partial curve]"
CCCCC(CC)COC(=O)c1ccccc1C(=O)O (configuration not stated),Potency,[3],"inconclusive: 6.18 µM [inhibitor, partial curve]"

# A run of entries from further up, for reference:
smiles,measurement,setting,value
CN1CCC[C@@H]1CCO[C@](C)(c1ccccc1)c1ccc(Cl)cc1,Potency,DIV14,"inconclusive: 5.36 µM [inhibitor, partial curve]"
same,Potency,N140,"inconclusive: 8.91 µM [inhibitor, single point]"
same,Potency,W2,active: 13.5 µM
CN1CCN(CCCN2c3ccccc3Sc3ccc(C(F)(F)F)cc32)CC1,Potency,[3],"inconclusive: 23.6 µM [inhibitor, partial curve, poor fit]"
same,Potency,[4],"inconclusive: 19.8 µM [inhibitor, partial curve, poor fit] and inconclusive: 49.8 µM [inhibitor, single point]"
